Source: patent publication US20050214802A1 (Genentech, published 2005)
No constants are given. Whether binding was seen depends on the method and setting. Some entries that bind do so weakly or less than the wild type.

The chains behind the UniProt entries cited, without tags or fusion partners. Residues count along the entry.
UniProt P98170, residues 252-348: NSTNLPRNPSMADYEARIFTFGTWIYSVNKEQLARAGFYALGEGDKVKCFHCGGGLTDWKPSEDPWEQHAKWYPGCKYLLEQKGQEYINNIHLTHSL

What was measured:
Assay in all cases: fluorescence polarization, FIG. 8
[1] = biological target: T1, MLXBIR3SG (ML-IAP chimera: ML-IAP-BIR framework with XIAP-BIR3 residues 336-348 in place of 160-179 and S150G) (human (ML-IAP / XIAP chimera))
T1 sequence: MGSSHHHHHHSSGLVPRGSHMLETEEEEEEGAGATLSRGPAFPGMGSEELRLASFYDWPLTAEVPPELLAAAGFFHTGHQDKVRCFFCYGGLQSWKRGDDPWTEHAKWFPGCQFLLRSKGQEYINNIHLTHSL

[2] = biological target: XIAP-BIR3 (third BIR of XIAP, residues 252-348) (human) (UniProt P98170)
[3] = biological target: T2, MLBIR-Q (C-terminally truncated variant of ML-IAP-BIR) (human) (UniProt Q96CA5)
T2 sequence (looked up): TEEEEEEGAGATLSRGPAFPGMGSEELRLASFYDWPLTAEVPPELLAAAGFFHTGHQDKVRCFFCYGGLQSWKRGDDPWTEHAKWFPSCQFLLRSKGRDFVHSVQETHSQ

[4] = biological target: T3, ML-IAP-BIR (amino acids 63-179 of ML-IAP, bacterially expressed from pET15b) (human) (UniProt Q96CA5)
T3 sequence (looked up): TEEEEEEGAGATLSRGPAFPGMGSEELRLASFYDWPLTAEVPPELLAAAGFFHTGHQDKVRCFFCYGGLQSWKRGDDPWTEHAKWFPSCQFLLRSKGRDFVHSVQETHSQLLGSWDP

[5] = biological target: MLXBIR3 (ML-IAP-BIR with amino acids 160-179 replaced by amino acids 336-348 of XIAP-BIR3) (human) (UniProt Q96CA5+P98170)

Measured: binding

B1: 5-carboxyfluorescein-conjugated AVPFAK(5-FAM)K (Hid-FAM) (peptide)
peptide: AVPFAK
modifications: 5-carboxyfluorescein on Lys 6: AVPFAK(5-FAM)K
binds: all assays above
